Assay [1] has as its target T1, GST–PPARα fusion protein (purified ligand binding domain of PPARα).
T1 sequence (Q07869 whole entry, species assumed, looked up): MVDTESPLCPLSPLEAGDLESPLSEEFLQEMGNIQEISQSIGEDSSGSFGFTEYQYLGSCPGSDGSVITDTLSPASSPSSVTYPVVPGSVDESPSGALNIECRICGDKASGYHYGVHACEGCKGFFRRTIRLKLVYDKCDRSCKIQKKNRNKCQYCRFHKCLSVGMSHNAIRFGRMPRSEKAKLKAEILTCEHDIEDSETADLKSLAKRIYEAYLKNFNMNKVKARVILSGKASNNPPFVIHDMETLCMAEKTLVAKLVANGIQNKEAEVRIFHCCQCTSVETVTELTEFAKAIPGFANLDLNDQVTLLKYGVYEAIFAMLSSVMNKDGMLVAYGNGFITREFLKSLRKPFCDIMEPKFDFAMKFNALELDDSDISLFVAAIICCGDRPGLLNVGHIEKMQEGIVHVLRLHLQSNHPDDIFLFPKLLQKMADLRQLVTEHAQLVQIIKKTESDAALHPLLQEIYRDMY
Kind of assay: FRET or BRET; homogeneous TR-FRET, pilot experiment: GST–PPAR ligand binding domain 20 nM (Eu-W1024-labeled anti-GST antibody), biotinylated cofactor peptide 500 nM (allophycocyanine streptavidin), in the presence of 10 μM of each PPAR ligand; 60 min at 37 °C; 50 mM HEPES pH 7.4, 25 mM NaCl, 0.1 mg/mL BSA, 1 mM dithiothreitol; both purified. In general terms: BRET reads energy transfer from a luciferase to a nearby fluorophore.

For assay [2], the target named is GST–PPARγ fusion protein (purified ligand binding domain of PPARγ). The description is as above.
The target of assay [3] is T1, GST–PPARα fusion protein (purified ligand binding domain of PPARα). Kind of assay: FRET or BRET; TR-FRET recruitment/competition assays on PPARα with TIF2_M2 and NCoR2 peptides: aleglitazar alone, RO4899100 alone, and increasing aleglitazar against RO4899100 at 100 nM; both purified.

Results are given in words; binding and its absence hold for the method and conditions named. For some of these results: Binding calls can cover weak binding; strength is not graded here.

B1: TIF2_M3 cofactor peptide (transcriptional intermediary factor 2, motif 3) (peptide)
peptide: SPKKKENALLRYLLDKDDTK
modifications: biotin separated by an aminohexanoic acid spacer at the N terminus
Take B1: the binding result in assay [1] is “binds”.

B2: SMRT ID1 cofactor peptide (silencing mediator of retinoid and thyroid hormone receptors, interaction domain 1) (peptide)
peptide: HQRVVTLAQHISEVITQDYTRHHP
modifications: biotin separated by an aminohexanoic acid spacer at the N terminus
B2: in assay [1], the binding result is “no binding (tested: 500 nM)”.

B3: NCoR ID1 cofactor peptide (nuclear receptor co-repressor, interaction domain 1) (peptide)
peptide: HRLITLADHICQIITQDFARNQVSS
modifications: biotin separated by an aminohexanoic acid spacer at the N terminus
B3: in assay [1], the binding entry is given as “no binding (tested: 500 nM)”.

B4: RAC3_M1 cofactor peptide (receptor-associated co-activator 3, motif 1) (peptide)
peptide: SKGHKKLLQLLTCSSD
modifications: biotin separated by an aminohexanoic acid spacer at the N terminus
For the molecule B4, the binding entry in assay [1] and in assay [2] was “no binding (tested: 500 nM)” each time.

B5: TIF2_M2 cofactor peptide (transcriptional intermediary factor 2, motif 2) (peptide)
peptide: STHGTSLKEKHKILHRLLQDS
modifications: biotin separated by an aminohexanoic acid spacer at the N terminus
In the case of B5, the binding entry in assay [3] and in assay [1] was “binds” in each case.

The record behind these values is article PMC3504387.
